In article doi:10.1101/2022.08.30.505748 (bioRxiv, 2022):
Positions count from the first letter of the chain named. Results are given in words; binding and its absence hold for the method and conditions named. Some entries that bind do so weakly or less than the wild type.

Sequences of proteins named here, by UniProt entry; tags and fusion partners are left off. A change or cut given only in a name is not applied to a line headed by its entry.
UniProt Q9NR09: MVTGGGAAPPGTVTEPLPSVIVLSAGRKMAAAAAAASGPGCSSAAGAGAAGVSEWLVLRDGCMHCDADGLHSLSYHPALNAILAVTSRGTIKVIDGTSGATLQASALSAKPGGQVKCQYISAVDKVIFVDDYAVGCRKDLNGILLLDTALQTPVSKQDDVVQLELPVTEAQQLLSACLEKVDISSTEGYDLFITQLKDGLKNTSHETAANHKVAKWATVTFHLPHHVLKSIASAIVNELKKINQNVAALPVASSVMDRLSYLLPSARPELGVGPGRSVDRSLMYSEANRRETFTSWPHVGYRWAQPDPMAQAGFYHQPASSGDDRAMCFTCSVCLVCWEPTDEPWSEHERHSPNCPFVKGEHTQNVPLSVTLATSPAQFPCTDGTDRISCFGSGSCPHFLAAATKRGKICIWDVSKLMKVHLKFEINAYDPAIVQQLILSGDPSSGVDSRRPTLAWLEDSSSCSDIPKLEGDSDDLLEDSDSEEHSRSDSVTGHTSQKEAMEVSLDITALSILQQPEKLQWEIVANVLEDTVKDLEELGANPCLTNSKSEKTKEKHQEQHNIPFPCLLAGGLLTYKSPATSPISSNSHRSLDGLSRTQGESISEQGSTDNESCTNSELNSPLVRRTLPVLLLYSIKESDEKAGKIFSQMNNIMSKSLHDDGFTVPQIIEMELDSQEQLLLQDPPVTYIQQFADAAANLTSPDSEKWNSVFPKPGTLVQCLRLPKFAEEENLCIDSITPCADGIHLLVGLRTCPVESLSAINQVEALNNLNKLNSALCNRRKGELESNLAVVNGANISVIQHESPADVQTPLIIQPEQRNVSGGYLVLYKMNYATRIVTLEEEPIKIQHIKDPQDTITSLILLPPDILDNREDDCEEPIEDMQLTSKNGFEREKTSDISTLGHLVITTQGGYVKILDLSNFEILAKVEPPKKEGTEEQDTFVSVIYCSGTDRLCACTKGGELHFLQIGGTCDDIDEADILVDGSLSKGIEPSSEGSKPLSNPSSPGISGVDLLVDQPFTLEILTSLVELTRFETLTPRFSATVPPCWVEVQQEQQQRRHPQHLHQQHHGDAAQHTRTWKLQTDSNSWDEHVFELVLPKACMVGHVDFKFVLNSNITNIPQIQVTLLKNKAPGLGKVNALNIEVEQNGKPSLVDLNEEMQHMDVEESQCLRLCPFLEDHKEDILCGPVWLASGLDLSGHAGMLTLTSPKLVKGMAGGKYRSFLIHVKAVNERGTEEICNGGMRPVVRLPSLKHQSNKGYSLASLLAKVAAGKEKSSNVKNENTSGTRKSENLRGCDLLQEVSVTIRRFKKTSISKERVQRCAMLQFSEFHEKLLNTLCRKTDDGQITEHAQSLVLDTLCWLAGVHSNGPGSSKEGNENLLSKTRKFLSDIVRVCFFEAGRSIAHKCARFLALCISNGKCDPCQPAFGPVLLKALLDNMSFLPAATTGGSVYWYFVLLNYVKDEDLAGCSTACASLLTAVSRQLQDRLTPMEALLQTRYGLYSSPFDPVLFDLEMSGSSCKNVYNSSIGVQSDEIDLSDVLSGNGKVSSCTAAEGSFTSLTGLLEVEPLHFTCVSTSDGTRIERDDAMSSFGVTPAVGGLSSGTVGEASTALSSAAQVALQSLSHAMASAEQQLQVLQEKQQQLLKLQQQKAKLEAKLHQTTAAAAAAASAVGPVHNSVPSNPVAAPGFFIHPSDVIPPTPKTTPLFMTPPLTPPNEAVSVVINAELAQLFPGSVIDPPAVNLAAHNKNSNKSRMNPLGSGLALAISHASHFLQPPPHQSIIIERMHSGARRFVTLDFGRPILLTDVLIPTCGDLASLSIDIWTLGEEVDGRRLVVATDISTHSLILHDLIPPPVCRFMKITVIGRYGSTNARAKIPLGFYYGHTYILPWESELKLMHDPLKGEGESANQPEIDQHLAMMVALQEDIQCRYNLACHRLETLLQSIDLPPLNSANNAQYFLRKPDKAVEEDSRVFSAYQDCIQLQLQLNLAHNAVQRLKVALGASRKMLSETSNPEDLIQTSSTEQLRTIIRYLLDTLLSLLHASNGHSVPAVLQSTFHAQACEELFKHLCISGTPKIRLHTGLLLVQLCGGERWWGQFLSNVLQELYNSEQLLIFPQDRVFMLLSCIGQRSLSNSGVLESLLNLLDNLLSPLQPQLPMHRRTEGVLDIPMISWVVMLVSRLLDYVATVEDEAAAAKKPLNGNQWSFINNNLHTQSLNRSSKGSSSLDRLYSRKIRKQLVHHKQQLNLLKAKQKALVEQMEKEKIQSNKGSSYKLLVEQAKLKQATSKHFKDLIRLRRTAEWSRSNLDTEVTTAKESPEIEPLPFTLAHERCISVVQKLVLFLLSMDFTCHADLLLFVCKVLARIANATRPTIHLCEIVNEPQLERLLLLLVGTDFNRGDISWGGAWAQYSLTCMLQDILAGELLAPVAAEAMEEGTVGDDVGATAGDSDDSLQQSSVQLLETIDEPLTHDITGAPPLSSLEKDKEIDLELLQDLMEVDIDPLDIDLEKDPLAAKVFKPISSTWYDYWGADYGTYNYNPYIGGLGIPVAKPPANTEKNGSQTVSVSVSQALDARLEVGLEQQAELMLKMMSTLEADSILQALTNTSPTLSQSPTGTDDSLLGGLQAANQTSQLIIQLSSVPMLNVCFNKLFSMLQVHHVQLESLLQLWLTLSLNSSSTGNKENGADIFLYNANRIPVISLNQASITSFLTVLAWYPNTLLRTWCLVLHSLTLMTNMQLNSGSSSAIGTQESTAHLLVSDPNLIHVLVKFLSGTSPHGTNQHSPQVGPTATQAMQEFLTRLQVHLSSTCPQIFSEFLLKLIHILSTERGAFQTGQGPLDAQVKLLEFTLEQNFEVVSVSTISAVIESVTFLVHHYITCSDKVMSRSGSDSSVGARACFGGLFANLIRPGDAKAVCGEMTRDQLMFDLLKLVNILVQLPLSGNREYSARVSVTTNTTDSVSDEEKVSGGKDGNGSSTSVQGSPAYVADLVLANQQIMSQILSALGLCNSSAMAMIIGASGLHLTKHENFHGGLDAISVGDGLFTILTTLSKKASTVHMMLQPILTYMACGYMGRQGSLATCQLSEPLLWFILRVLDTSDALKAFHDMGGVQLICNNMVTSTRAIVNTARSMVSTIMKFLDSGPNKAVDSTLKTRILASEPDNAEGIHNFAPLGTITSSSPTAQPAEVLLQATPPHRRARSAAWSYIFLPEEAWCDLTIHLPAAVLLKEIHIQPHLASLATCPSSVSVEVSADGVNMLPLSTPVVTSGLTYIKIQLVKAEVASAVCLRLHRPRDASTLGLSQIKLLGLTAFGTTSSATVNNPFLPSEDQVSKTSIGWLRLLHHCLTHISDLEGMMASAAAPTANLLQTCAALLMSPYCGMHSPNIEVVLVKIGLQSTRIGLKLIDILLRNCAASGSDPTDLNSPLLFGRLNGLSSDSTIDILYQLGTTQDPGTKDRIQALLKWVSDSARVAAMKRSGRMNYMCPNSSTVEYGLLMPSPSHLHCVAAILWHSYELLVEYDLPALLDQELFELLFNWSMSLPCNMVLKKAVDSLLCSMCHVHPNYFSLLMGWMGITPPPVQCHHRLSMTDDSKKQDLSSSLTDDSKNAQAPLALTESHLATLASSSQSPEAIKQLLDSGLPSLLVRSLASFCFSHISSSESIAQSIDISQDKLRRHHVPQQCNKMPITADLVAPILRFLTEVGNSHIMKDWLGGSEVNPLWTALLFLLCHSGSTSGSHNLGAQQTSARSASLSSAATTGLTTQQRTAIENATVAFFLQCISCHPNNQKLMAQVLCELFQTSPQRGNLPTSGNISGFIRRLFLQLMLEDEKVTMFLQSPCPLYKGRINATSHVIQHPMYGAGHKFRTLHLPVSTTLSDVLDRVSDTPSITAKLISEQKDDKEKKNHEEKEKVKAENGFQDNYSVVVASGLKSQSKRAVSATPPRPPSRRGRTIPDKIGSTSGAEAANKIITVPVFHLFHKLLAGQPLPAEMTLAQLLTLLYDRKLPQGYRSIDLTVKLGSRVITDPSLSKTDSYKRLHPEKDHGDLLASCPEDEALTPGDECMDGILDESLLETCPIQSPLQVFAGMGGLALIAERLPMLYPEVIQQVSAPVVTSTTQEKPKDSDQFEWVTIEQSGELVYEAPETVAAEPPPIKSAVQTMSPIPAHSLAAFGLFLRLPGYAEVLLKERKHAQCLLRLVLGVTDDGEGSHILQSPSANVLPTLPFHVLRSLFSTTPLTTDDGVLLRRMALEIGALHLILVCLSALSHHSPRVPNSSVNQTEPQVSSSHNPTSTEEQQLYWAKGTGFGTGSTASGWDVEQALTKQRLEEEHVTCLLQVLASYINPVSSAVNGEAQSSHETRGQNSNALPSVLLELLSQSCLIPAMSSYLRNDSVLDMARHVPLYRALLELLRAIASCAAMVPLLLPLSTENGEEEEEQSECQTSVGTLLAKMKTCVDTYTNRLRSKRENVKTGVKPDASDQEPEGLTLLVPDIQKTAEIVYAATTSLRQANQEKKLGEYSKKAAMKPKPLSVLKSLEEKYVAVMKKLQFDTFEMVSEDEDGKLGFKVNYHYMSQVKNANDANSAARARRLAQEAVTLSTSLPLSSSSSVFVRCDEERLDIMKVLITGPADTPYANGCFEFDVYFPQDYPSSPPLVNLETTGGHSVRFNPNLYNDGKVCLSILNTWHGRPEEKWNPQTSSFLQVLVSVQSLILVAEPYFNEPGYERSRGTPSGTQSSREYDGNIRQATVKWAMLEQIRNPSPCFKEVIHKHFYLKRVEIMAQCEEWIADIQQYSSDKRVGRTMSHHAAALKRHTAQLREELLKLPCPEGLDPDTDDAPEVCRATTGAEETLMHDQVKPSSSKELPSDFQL

Tests used:
Test in all cases: fluorescence polarisation
[1] = molecular target: Cy3-labelled SMAC N-terminal peptide, …(Cy3)-Am
[2] = molecular target: T1, Alexa 555 monomeric SMAC (V81D), a.a. 56-239 with a C-terminal cysteine (UniProt Q9NR28)
T1 sequence (chain, Alexa Fluor 555 on the C-terminal cysteine): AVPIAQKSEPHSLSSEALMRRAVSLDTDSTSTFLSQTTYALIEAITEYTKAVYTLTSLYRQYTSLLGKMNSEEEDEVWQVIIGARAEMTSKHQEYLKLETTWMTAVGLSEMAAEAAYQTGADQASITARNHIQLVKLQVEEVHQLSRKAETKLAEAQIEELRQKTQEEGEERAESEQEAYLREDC

[3] = molecular target: T2, Alexa555-SMAC (WT), a.a. 56-239 with a C-terminal cysteine (UniProt Q9NR28)
T2 sequence (chain, Alexa Fluor 555 on the C-terminal cysteine): T1 sequence (chain, Alexa Fluor 555 on the C-terminal cysteine) with D26V

Substance	binding [1]	binding [2]	binding [3]
BIRC6 D342A (full-length) (from UniProt Q9NR09 1-4857) (enzyme)	no binding	no binding	
BIRC6 DOC domain tip mutant, residues 3189-3193 HRRaR to all Asp (from UniProt Q9NR09 1-4857) (enzyme)		binds	
BIRC6 H351D (full-length) (from UniProt Q9NR09 1-4857) (enzyme)	no binding		
BIRC6 D342A in combination with HRRaR–D (from UniProt Q9NR09 1-4857) (enzyme)			binds
